Assay results from PMC4780735.
These are yes or no findings as the source states them, for the method shown. For part of these data: Binding seen in cells or lysates may run through a third protein. For part of these data: Where a sequence is shown, tags or fusion partners need not be part of it. Values belong to the binder of their own block, whether it stands above or below them.

Assays:
[1] = target: T1, EnvZ sensory kinase tagged with mYFP (E. coli), P0AEJ4; experiment: FRET or BRET; homo-FRET between the mYFP tags, read as fluorescence anisotropy of live E. coli cells immobilised on a coverslip in a flow chamber; motility buffer pH 7 without EDTA, 22-23 °C; CuSO4 added (0.5-100 μM for BaeS, 10 μM for BaeS^H4/A and the other kinases, 30 μM for mYFP^D); settings: remark: other sources report otherwise
T1 chain: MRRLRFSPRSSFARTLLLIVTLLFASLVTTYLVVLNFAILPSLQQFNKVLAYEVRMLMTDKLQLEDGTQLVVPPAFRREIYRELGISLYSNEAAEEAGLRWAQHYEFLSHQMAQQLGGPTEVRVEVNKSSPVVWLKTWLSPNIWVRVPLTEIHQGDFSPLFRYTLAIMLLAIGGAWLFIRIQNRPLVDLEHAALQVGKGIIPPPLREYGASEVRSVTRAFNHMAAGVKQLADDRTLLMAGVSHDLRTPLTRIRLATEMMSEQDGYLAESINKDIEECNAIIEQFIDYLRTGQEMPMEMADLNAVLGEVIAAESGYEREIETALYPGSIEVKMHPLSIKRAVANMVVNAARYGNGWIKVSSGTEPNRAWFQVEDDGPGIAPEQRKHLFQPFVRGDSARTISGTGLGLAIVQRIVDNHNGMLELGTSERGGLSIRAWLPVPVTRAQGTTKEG

[2] = target: BaeS periplasmic domain (BaeS^P) (E. coli) (UniProt P30847); experiment: SEC; analytical gel filtration of purified BaeS^P (S4A Fig); Superdex 75, 20 mM HEPES, 0.3 M NaCl, 5% glycerol, pH 7 in the purification; both purified
[3] = target: T2, CpxA sensory kinase tagged with mYFP (E. coli), P0AE82; experiment: FRET or BRET; homo-FRET between the mYFP tags, read as fluorescence anisotropy of live E. coli cells immobilised on a coverslip in a flow chamber; motility buffer pH 7 without EDTA, 22-23 °C; CuSO4 added (0.5-100 μM for BaeS, 10 μM for BaeS^H4/A and the other kinases, 30 μM for mYFP^D); settings: remark: other sources report otherwise
T2 chain: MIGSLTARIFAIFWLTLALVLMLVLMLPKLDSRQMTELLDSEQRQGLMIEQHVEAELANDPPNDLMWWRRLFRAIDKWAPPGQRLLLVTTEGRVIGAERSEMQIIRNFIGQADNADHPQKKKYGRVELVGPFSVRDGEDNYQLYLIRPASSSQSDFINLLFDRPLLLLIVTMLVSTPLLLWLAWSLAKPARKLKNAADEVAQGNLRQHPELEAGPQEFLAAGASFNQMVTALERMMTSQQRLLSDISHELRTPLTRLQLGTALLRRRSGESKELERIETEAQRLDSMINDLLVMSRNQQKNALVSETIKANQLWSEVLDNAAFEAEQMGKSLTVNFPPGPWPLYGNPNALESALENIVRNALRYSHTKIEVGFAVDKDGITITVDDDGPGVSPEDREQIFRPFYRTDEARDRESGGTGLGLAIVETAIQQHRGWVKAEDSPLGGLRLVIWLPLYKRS

- binding [1]: no binding (tested: 10 μM CuSO4)
B1: EnvZ sensory kinase tagged with mYFP, P0AEJ4 1-450 (receptor)
chain: MRRLRFSPRSSFARTLLLIVTLLFASLVTTYLVVLNFAILPSLQQFNKVLAYEVRMLMTDKLQLEDGTQLVVPPAFRREIYRELGISLYSNEAAEEAGLRWAQHYEFLSHQMAQQLGGPTEVRVEVNKSSPVVWLKTWLSPNIWVRVPLTEIHQGDFSPLFRYTLAIMLLAIGGAWLFIRIQNRPLVDLEHAALQVGKGIIPPPLREYGASEVRSVTRAFNHMAAGVKQLADDRTLLMAGVSHDLRTPLTRIRLATEMMSEQDGYLAESINKDIEECNAIIEQFIDYLRTGQEMPMEMADLNAVLGEVIAAESGYEREIETALYPGSIEVKMHPLSIKRAVANMVVNAARYGNGWIKVSSGTEPNRAWFQVEDDGPGIAPEQRKHLFQPFVRGDSARTISGTGLGLAIVQRIVDNHNGMLELGTSERGGLSIRAWLPVPVTRAQGTTKEG

- binding [2]: no binding
B2: BaeS periplasmic domain (BaeS^P) (domain or fragment, UniProt P30847 38-168)
chain: GFIDYIKHGNEQRLQLLSDALGEQYAQHGNWRFLRNNDRFVFQILRSFEHDNSEDKPGPGMPPHGWRTQFWVVDQNNKVLVGPRAPIPPDGTRRPILVNGAEVGAVIASPVERLTRNTDINFDKQQRQTSW

- binding [3]: no binding (tested: 10 μM CuSO4)
B3: CpxA sensory kinase tagged with mYFP, P0AE82 1-457 (receptor)
chain: MIGSLTARIFAIFWLTLALVLMLVLMLPKLDSRQMTELLDSEQRQGLMIEQHVEAELANDPPNDLMWWRRLFRAIDKWAPPGQRLLLVTTEGRVIGAERSEMQIIRNFIGQADNADHPQKKKYGRVELVGPFSVRDGEDNYQLYLIRPASSSQSDFINLLFDRPLLLLIVTMLVSTPLLLWLAWSLAKPARKLKNAADEVAQGNLRQHPELEAGPQEFLAAGASFNQMVTALERMMTSQQRLLSDISHELRTPLTRLQLGTALLRRRSGESKELERIETEAQRLDSMINDLLVMSRNQQKNALVSETIKANQLWSEVLDNAAFEAEQMGKSLTVNFPPGPWPLYGNPNALESALENIVRNALRYSHTKIEVGFAVDKDGITITVDDDGPGVSPEDREQIFRPFYRTDEARDRESGGTGLGLAIVETAIQQHRGWVKAEDSPLGGLRLVIWLPLYKRS
